Results reported in the supplement of paper PMC3334620.
Over roughly 33,000 sequences, “E-score (-0.5 to 0.5)” has its median near -0.015; the highest 2% begin near 0.3. This is one part of the list.

target: T1, Abf1 (UniProt P14164); test: PBM E-score (8-mer binding enrichment) (E-score (-0.5 to 0.5)); higher = stronger / more preferred TF binding; settings: protein concentration: 200 nM; construct: GST-full length
T1 sequence: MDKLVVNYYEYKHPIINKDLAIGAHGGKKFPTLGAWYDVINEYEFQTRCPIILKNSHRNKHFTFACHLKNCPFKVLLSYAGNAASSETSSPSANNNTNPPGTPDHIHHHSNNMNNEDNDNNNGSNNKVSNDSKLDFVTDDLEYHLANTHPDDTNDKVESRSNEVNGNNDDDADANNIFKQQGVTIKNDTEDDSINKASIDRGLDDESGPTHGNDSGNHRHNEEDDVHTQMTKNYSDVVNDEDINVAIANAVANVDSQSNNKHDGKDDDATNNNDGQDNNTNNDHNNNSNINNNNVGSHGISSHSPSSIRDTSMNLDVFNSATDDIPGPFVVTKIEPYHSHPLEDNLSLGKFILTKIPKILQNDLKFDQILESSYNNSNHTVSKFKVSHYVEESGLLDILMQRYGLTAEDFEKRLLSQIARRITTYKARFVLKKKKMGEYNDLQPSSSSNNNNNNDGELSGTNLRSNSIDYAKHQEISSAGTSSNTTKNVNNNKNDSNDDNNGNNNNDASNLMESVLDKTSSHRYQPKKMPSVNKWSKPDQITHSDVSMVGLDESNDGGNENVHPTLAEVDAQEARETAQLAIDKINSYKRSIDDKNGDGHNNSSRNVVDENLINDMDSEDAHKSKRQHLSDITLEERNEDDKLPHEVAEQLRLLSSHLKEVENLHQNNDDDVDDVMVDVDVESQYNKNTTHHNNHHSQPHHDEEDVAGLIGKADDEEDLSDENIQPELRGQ
How it was run: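 Yeast transcription factors, full-length or as DNA-binding domains, were expressed with a GST tag using PURExpress in vitro transcription/translation. At about 100-200 nM they were applied to universal all-10-mer Agilent arrays, double-stranded by primer extension on fresh or once-stripped slides. Fluorescent anti-GST detected bound protein, and masliner normalised the scans. E-scores for ungapped eight-base words, pooled with reverse complements, came from the Universal PBM Analysis Suite.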

Sequence	PBM E-score
CCTGTTGC	-0.0345
GTCGGCAA	0.0394
GGGTCTCA	-0.242
CTAATTGC	-0.0653
CAGCGCCC	-0.101
GACCCCGA	-0.181
GGGTGGAC	-0.189
CGATTTGA	0.0357
AGCTGCAA	-0.319
ACCGACTA	-0.297
ACTTTATC	0.214
GGGCCTCA	-0.207
GGAGCTTA	-0.248
GAACTCCC	0.011
AAGTCACA	0.125
CAGACGAC	0.191
ACGTTAGA	0.237
CAAACGCC	0.0828
CCCAACAG	-0.269
GTCACGAC	0.261
ATAACCAC	0.108
AAATCAGT	0.153
ATTGGAGC	-0.128
GGAATGAC	0.215
GGTTCCCA	-0.188

An excerpt of these results, in markdown:

| Sequence | PBM E-score |
| --- | --- |
| GACCCCGA | -0.181 |
| GGGTGGAC | -0.189 |

Additional results.

Sequence	PBM E-score
CGCCGTTA	0.14
CCTCCACA	-0.229
CAAGTTGC	0.0577
ATGTCTAA	0.194
AGTGATAC	0.385
GAACAGGA	0.0171
AGTACCTC	0.0185
GTTTAACA	0.0815
GTGCCTTA	0.0147
AGGTCGAT	0.132
GGCTTCCC	-0.0974
GATACGAC	0.148
GAACCAAC	-0.0801
ATCCGCCA	-0.0568
GATATCGA	0.271
ACTCTTAG	-0.0672
GATCTCCA	0.167
GACACCCA	-0.108
GGGCCAGA	-0.208
AAGAATCT	-0.115
ACGTTCAT	0.0656
AGTGGCTG	-0.142
AGGCCTGA	-0.101
CACACTTA	-0.007
GCAACGTA	0.123

Sequence	PBM E-score
GAGGAGTA	-0.0454
AGCACTAT	0.0825
CGATCCAA	0.148
ATCGAATG	-0.0318
CTATGTAA	-0.0567
TATATTGA	0.0852
ACAACATC	-0.0257
ATCCGATC	-0.092
GCTTATCA	0.0367
AATAACGC	-0.118
CTAAAAGA	-0.161
CCTAAGTA	0.169
AACGGCCT	0.0741
CCGGTGTA	-0.124
AGTTAGAA	0.0564
GGTGAACC	-0.174
CTCGTGGC	0.0236
CCCCGATA	-0.157
AGTCTATC	0.00248
CCCTTAAG	-0.111
CCAACTGG	-0.0293
ATTAACTA	0.187
ATACCGAC	-0.0227
ACTCGTAC	0.195
GGCTAACA	0.00759

Sequence	PBM E-score
GCTGAGTA	-0.21
ATTAATGG	0.275
ATATACCA	0.173
GGATCATA	0.0286
TAGGTGGA	0.093
CCATATAG	-0.0494
AACTAGTT	-0.0594
GTTCTCCA	-0.0724
CGACCAAA	0.126
CGTATGGA	0.232
AAATATAC	0.0697
GGAGTGCC	-0.252
AGAGAGGG	-0.191
CATGCAGC	-0.143
AGAAGCTC	0.0115
CATAAGAG	-0.0863
AACGGTGG	-0.0044
ATGCCTCG	0.0921
ACCGGGCA	-0.222
AAAGCTGC	0.0689
GTCAATCA	0.12
AAATGTCT	0.145
AATGAGCC	-0.35
ATCTTCCC	-0.146
CCAAGATC	0.0578

Sequence	PBM E-score
AACCGATG	-0.0418
GCCCGACA	-0.0668
ACGATGAC	0.264
CGCGTCCG	-0.0887
ACTGCACG	-0.0217
CGCTCGTC	0.175
CGCTCCAA	-0.0928
GATGATTA	0.263
ACGTTTCC	0.0711
CGTCCGCA	-0.0473
TCGAGGAA	-0.148
CCCCGAGA	-0.183
GCCTACAA	-0.14
AACACTTG	-0.0627
CGGAGTTA	0.0161
GTTCTAAA	0.119
ATCTGCTA	0.0805
AATGCGCG	0.13
GTGGTAGA	-0.089
CTCGCGCA	-0.135
ACACGCCT	0.0759
AATGGCAC	-0.21
GTCCCCAA	0.0213
GCAGGTAA	-0.0689
ATACCCAA	0.0687

Sequence	PBM E-score
CAAGGCGG	-0.119
AGAAGCTA	0.0919
ACGTTGAC	0.0962
GCTGATAC	0.0305
CCCCAGGA	-0.301
CCGTCGAC	0.103
AATGACCG	-0.0142
CCACAGAC	-0.0822
GGACTCAC	-0.0476
ACCGGTGG	-0.364
GAGGTCAC	0.25
CGACCCCC	-0.369
AATCGTCG	0.24
CCCCGAAA	-0.0454
ACCTTAAG	-0.0181
ATGAACCG	-0.0583
ACGAAAGC	0.356
TAATCACA	0.0137
GCCGATGA	-0.0318
GGCTTCAC	-0.0488
AGTCTGAT	-0.0793
CGAGGACA	-0.0166
GAGACACC	-0.178
ATGCCCAA	-0.0366
ACGCGATC	0.144

Sequence	PBM E-score
CATATAGA	-0.0343
ATCTGGTG	0.0381
CTTCTCGA	0.0296
CTAAACGA	0.158
AACGCCGG	-0.164
GACCTAAC	0.22
GGAAAGGA	-0.276
AAGTGTGT	0.154
GCGTAGAA	0.0196
CACGACCC	0.0117
CGTCTATA	0.159
ACAGTAGT	-0.078
ATTTTTAC	0.114
AACCTAGT	-0.015
ACTGTGTG	-0.00379
ATGTTGTA	0.098
AGCTGCTG	-0.0862
ACACAAAA	0.00785
CTTTCCCC	-0.148
ACTGAAAC	0.00209
CCGCCGGC	-0.123
CCGTCAGA	0.132
AGTTCCTA	0.0999
AGCACCCA	-0.276
GAGGGGGA	-0.355

Reprinted at random: 2 records from the list.
Sequence	PBM E-score
ACGTTGAC	0.0962
AACACTTG	-0.0627

The results go on:

Sequence	PBM E-score
ATACGAAC	0.294
GCCATGGC	-0.267
ACAGAAGC	0.00103
CTCCCAGA	-0.159
ACGGCAGA	0.206
CATCGAAC	0.119
AAACTACA	0.0477
GCCTGGGA	-0.0751
ACTGATCG	0.0647
ATAATGCG	0.0263
GGCTCCCC	-0.241
CGGGATAC	0.0549
ATCATGTG	0.156
AACTTAGT	0.0102
CCGACAAC	0.0395
AATGAGAA	0.132
CCTGTACC	-0.0879
CCCGAGGG	-0.179
GTGAAGTA	0.142
TATAACAA	0.105
ATTTCGTC	0.229
CCTGTCAC	0.149
ACCCACCT	-0.266
AGTCGAAT	-0.178
AACCGTTC	0.204

Sequence	PBM E-score
AGGTGGGC	-0.291
GAGAAGTA	-0.0578
ATTGCACA	0.0349
CGCACGAC	0.242
CGGGGAGC	-0.00752
AGTGTGAT	0.214
ACGCACAC	0.0964
ATAAGCGA	0.171
CGTCACAG	0.0767
ACCGATTA	0.107
AATAGGTC	0.0547
AATACCTG	0.0237
ACTCGCTA	0.105
AATAGCGA	0.234
GCCCGGAC	-0.102
AAACCACT	-0.142
CTGATTGA	0.0847
GAACAGGC	-0.227
CCTCCGAA	-0.0401
GCACTTCC	-0.257
AAAGGCGG	-0.0153
TAGGCAAA	-0.0493
AATGAGGC	-0.0217
GCAATCAC	-0.0347
ATTCCCAC	-0.00547

Sequence	PBM E-score
GCCCGCAC	-0.155
ACGATATG	0.304
ATGTACGC	0.027
ACATTTAA	0.182
CTCTTAAC	0.17
ACGAGAAC	0.185
CTGACTCC	-0.131
GCACGGTA	0.206
AAACCCTC	-0.168
TGTATAAA	0.116
ACAGAACC	-0.069
ACCTGATC	0.00546
TATCAAGA	0.057
AACGCTTG	-0.239
CGAGAGCG	-0.0971
AACGATGA	0.243
ACCCATAT	0.0238
GTTTACGA	0.253
ACTCGGAG	-0.00102
CCGCTCCG	-0.24
CAGGCGCG	-0.212
TACTATAA	0.101
CAGCAACC	-0.0964
AACCCATC	-0.096
CCCGTAAG	0.095

Sequence	PBM E-score
ACCATTTC	-0.0361
GTAGTGTA	0.12
CCTCTTTA	-0.116
ATGGACAT	0.133
GCTAAAGC	-0.16
CCTAGATC	0.0796
ATTATTGG	-0.015
CGTACAGC	-0.0515
GCGAGCCA	-0.0175
CAGATCGG	-0.205
ACTCTGCA	-0.0803
ATCACCTG	0.191
CGCCACCC	-0.22
GGCAAGAC	-0.168
TAAGTGAA	0.128
GACCCAAA	0.00458
ATGCACTA	0.176
GTTATTCA	0.198
CCAATTGA	-0.21
CAAAATAC	0.0138
AGCGATAT	0.352
GCCCTCCC	-0.286
CCGCTTGA	-0.0188
TAGGGCAA	-0.14
CAGTCATA	-0.0487

Sequence	PBM E-score
ACCCGACC	-0.103
GATCGACC	-0.0655
ATAATGTA	0.168
CAGTGTTA	-0.163
GCGTGGCA	-0.0717
AACAGGCG	-0.00189
CATGGACA	-0.109
CAGCTATG	-0.133
CTACAAAG	-0.0121
CTACCCAA	-0.00474
GTCGCGCA	0.0405
CATGTCCA	0.21
CATTCAGC	0.0488
AAGGGCAA	-0.194
ATACCCCG	-0.19
GATCAGAA	-0.0694
AGTGACAG	0.292
ACTCTACG	0.0491
ACAGCGTA	0.0384
GAAGGACA	0.208
AGTTTCTC	-0.0331
AAATGTAA	0.247
GGAAACCA	-0.245
ACTTGTCG	-0.0268
CAATCAAC	0.145

Sequence	PBM E-score
GGCCTGAA	-0.358
AAGTCGCG	0.0729
AACGAGCG	0.13
AATCTGGC	-0.0204
GATGCTCA	-0.129
ATTCTGCG	0.0746
CTACCGGA	-0.217
TCGGTTCA	-0.252
CACCTATC	0.111
CACCTGAA	0.0241
CTGCTTTA	0.174
GGACAGTA	-0.00085
ACAGTAAT	0.0618
GCTCGACC	-0.112
TAAAATAA	0.158
CGGACTTC	-0.174
CTGGTGCC	-0.224
AAATAACT	0.186
CATTAAGG	0.0862
AGCTATGG	-0.102
CGACACCG	-0.128
ACGCCCGT	0.0152
CGTTGAGC	0.0359
TGGACGAA	0.243
ATACCATA	0.154

Sequence	PBM E-score
CCCTGGTA	-0.209
GTCGACGA	0.26
TACGTCCA	0.0691
ACGGCGAA	0.343
ATCTGTAC	0.0718
CATGAAAC	-0.165
GGAGTGGA	-0.153
GAAAGGCA	0.0645
CAACCTAA	0.0971
ACTGTATA	0.112
CTAGCGTC	-0.0778
ATGAACGG	0.02
AGTGATCG	0.239
GTATAGAA	0.223
CAAAGAAC	-0.0472
ACCTCAAC	0.0396
CCATCAGA	-0.13
CTGACGTA	-0.0588
CTCGGTGA	0.135

Taken from the listing (six entries):
Sequence	PBM E-score
AGTGATCG	0.239
GTATAGAA	0.223
CAAAGAAC	-0.0472
ACCTCAAC	0.0396
CCATCAGA	-0.13
CTGACGTA	-0.0588
